# Laboratory results as given in paper PMC5095532.
# No constants are given. Whether binding was seen depends on the method and setting. In cells and extracts the contact can be indirect. Some entries that bind do so weakly or less than the wild type.
# Biological target: poly ADP-ribose polymerase 14 (PARP14) (UniProt Q460N5)
# Test: co-IP; 100 ug of cell lysate protein (IP lysis buffer) incubated with PARP14 antibody (5 ug) and Dynabeads streptavidin, rotation overnight at 4 °C; three washes with PBS/Tween 20 (0.02%); SDS-PAGE and western blot
substance,measurement,value
PARP9 (from UniProt Q8IXQ6 1-854) (other; other documents disagree on this pair),binding,binds
